Reference: doi:10.1101/572156
Numbering of substitutions follows the chain as printed. These are yes or no findings as the source states them, for the method shown. In cells and extracts the contact can be indirect. Some results given as binding are weak or reduced against the parent protein; the word gives no strength. Sequences can lack the tags named with a protein.

Chains of the proteins cited; added tags and fusions are not shown.
UniProt Q15717: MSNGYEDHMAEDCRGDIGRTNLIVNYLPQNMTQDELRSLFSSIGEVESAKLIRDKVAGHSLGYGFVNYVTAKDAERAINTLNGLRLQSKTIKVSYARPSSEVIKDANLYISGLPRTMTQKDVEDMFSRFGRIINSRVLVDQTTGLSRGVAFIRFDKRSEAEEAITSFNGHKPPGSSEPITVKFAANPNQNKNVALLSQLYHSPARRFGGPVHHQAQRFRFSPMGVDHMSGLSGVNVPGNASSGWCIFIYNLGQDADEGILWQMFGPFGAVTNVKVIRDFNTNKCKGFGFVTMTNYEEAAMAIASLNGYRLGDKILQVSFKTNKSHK

Columns and labels:
[1] = target: T1, FLAG-tagged DND1 wild-type (full-length human Dead End, 1-353) (human) (UniProt Q8IYX4); test: co-IP
T1 sequence: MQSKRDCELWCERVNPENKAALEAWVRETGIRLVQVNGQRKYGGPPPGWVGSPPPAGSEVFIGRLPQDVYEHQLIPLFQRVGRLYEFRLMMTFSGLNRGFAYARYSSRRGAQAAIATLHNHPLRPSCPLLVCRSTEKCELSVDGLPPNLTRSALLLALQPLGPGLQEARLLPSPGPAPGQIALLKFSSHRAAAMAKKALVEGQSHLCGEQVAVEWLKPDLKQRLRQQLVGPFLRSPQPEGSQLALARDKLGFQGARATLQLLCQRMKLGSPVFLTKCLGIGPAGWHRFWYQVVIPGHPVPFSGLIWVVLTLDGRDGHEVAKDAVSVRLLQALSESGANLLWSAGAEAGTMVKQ

[2] = target: T2, FLAG-tagged DND1 R98A (full-length, RRM1 RNP1 RNA binding mutant) (human) (UniProt Q8IYX4); test: co-IP
T2 sequence: T1 sequence with R98A

- binding [1]: binds
- binding [2]: binds
Substance: ELAVL1/HuR (from UniProt Q15717 1-326)
